# Experimental data reported in paper PMC10599732.
# Amino acid sequences for entries named in this document (tags omitted).
# UniProt P09936: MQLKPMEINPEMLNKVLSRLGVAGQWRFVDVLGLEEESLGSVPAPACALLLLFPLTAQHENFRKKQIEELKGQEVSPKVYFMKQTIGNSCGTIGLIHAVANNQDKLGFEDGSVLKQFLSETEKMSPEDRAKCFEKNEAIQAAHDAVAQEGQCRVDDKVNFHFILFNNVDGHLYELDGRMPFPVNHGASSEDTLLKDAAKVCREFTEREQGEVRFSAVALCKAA
# UniProt P14618: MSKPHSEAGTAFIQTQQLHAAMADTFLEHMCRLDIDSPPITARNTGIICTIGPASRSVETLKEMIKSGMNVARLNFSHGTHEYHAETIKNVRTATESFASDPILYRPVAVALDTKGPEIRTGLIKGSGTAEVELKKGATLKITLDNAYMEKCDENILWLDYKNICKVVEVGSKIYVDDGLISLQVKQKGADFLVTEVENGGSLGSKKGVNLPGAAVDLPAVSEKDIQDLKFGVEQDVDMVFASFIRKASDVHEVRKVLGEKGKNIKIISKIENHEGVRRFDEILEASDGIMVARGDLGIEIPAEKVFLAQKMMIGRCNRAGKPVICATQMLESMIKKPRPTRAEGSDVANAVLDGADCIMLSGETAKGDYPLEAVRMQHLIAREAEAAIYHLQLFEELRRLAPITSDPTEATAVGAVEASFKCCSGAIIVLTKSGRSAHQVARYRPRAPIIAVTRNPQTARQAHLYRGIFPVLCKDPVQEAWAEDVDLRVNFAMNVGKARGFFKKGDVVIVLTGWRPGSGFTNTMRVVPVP
# No constants are given. Whether binding was seen depends on the method and setting. Binding seen in cells or lysates may run through a third protein. Some binding calls cover weakened binding; strength is not graded here.
# Target: Ubiquitin Carboxy-Terminal Hydrolase L1 (human (endogenous in T24 and J82)) (UniProt P09936)
# Test: co-IP; endogenous proteins in T24 and J82 cell lysates; antibody on magnetic beads, GLB+ lysis buffer with protease inhibitors, 4°C overnight, 4 washes; Western blot
substance,measurement,value
Pyruvate kinase M2 (from UniProt P14618 1-531) (enzyme),binding,binds
